# Measurements taken from ChEMBL document CHEMBL4513141, “CO-ADD screening of NIH (USA) - Clinical Collection” (2021).
# Some of the results follow. Results with a measured potency or affinity are listed apart.
# Tested on: Pseudomonas aeruginosa
# Settings: Concentration 20 uM; ASSAY_TEST Inhibition of Bacterial Growth; detection method Absorption (OD600); MEDIA CAMHB; plate type 384well; NBS; CORNING #3640; time 18 hr
row,SMILES,Inhibition [%]
1,CC(O)(CS(=O)(=O)c1ccc(F)cc1)C(=O)Nc1ccc(C#N)c(C(F)(F)F)c1 (stereo not given) [BICALUTAMIDE],4.08
2,CCOC(=O)c1cncn1[C@H](C)c1ccccc1 [ETOMIDATE],14.32
3,CC(COc1ccccc1)N(CCCl)Cc1ccccc1.Cl (stereo not given) [PHENOXYBENZAMINE HYDROCHLORIDE],12.84
4,COCCCOc1ccnc(C[S+]([O-])c2nc3ccccc3[nH]2)c1C (stereo not given) [RABEPRAZOLE],18.08
5,CC(=O)OCC[N+](C)(C)C.[Cl-] [ACETYLCHOLINE CHLORIDE],6.67
6,Cl.FC(F)(F)c1cccc(N2CCNCC2)c1 [N- (3-TRIFLUOROMETHYLPHENYL)PIPERAZINE HYDROCHLORIDE (TFMPP)],9.28
7,Cc1nnc2n1-c1ccc(Cl)cc1C(c1ccccc1)=NC2 [ALPRAZOLAM],52.22
8,COc1ccc(C(CN(C)C)C2(O)CCCCC2)cc1.Cl (stereo not given) [VENLAFAXINE HYDROCHLORIDE],11.05
9,CC(C)NCC(O)c1ccc(O)c(O)c1.Cl (stereo not given) [ISOPROTERENOL HYDROCHLORIDE],5.9
10,O=C(O)C(Cl)Cl [DICHLOROACETIC ACID],15.81
11,CC[N+](C)(C)c1cccc(O)c1.[Cl-] [EDROPHONIUM CHLORIDE],11.75
12,Cl.O=C1c2cccc3c2[C@H](CCC3)CN1[C@@H]1CN2CCC1CC2 [PALONOSETRON HYDROCHLORIDE],10.25
13,Cc1c(OCC(F)(F)F)ccnc1C[S+]([O-])c1nc2ccccc2[nH]1 (stereo not given) [LANSOPRAZOLE],11.72
14,CCOC(=O)C1(c2ccccc2)CCN(CCC(C#N)(c2ccccc2)c2ccccc2)CC1.Cl [DIPHENOXYLATE HYDROCHLORIDE],6.91
15,CN1C(=O)CN=C(c2ccccc2)c2cc(Cl)ccc21 [DIAZEPAM],6.74
16,Br.COc1ccc2c3c1O[C@H]1C[C@@H](O)C=C[C@@]31CCN(C)C2 [GALANTAMINE HYDROBROMIDE],16.54
17,CN1CCC[C@H]1c1cccnc1 [NICOTINE],-4.09
18,CN[C@@H]1C[C@@H](c2ccc(Cl)c(Cl)c2)c2ccccc21.Cl [INDATRALINE HYDROCHLORIDE],1.08
19,C[C@H](CCC(=O)O)[C@H]1CC[C@H]2[C@@H]3[C@@H](O)C[C@@H]4C[C@H](O)CC[C@]4(C)[C@H]3CC[C@]12C [URSODIOL],8.73
20,CC(C)c1cccc(C(C)C)c1O [PROPOFOL],-2.23
21,CCC(COC(=O)c1cc(OC)c(OC)c(OC)c1)(c1ccccc1)N(C)C.O=C(O)/C=C\C(=O)O (stereo not given),12.52
22,CC(C)NCC(O)COc1cccc2[nH]ccc12 (stereo not given) [PINDOLOL],13.32
23,c1ccc(Cn2ccnc2)cc1,12.69
24,CC(C)N(CCC(C(N)=O)(c1ccccc1)c1ccccn1)C(C)C.O=P(O)(O)O (stereo not given) [DISOPYRAMIDE PHOSPHATE],5.03

# Four entries from above, set out differently.
row	SMILES	Inhibition [%]
13	Cc1c(OCC(F)(F)F)ccnc1C[S+]([O-])c1nc2ccccc2[nH]1 (stereo not given) [LANSOPRAZOLE]	11.72
14	CCOC(=O)C1(c2ccccc2)CCN(CCC(C#N)(c2ccccc2)c2ccccc2)CC1.Cl [DIPHENOXYLATE HYDROCHLORIDE]	6.91
19	C[C@H](CCC(=O)O)[C@H]1CC[C@H]2[C@@H]3[C@@H](O)C[C@@H]4C[C@H](O)CC[C@]4(C)[C@H]3CC[C@]12C [URSODIOL]	8.73
23	c1ccc(Cn2ccnc2)cc1	12.69

# Next compounds:

row,SMILES,Inhibition [%]
1,C[C@]12CC(C=O)=C(O)C[C@@H]1CC[C@@H]1[C@@H]2CC[C@@]2(C)[C@H]1CC[C@]2(C)O,6.85
2,COC(=O)C[C@](O)(CCCC(C)(C)O)C(=O)O[C@@H]1C(OC)=C[C@]23CCCN2CCc2cc4c(cc2[C@H]13)OCO4 [OMACETAXINE MEPESUCCINATE],11.81
3,C[C@]12CC[C@H](O)CC1=CC[C@@H]1[C@@H]2CC[C@@]2(C)[C@H]1CC[C@]2(C)O [METHANDRIOL],4.21
4,c1ccc2c(c1)Nc1ccccc1S2 [PHENOTHIAZINE],12.74
5,O=C1Nc2ccc(Cl)cc2C(c2ccccc2Cl)=NC1O (stereo not given) [LORAZEPAM],7.26
6,CN1CCN(C(=O)O[C@H]2c3nccnc3C(=O)N2c2ccc(Cl)cn2)CC1 [ESZOPICLONE],5.48
7,CNCCC(Oc1ccc(C(F)(F)F)cc1)c1ccccc1.Cl (stereo not given) [FLUOXETINE HYDROCHLORIDE],11.84
8,CCCN1C[C@H](CSC)C[C@@H]2c3cccc4[nH]cc(c34)C[C@H]21.CS(=O)(=O)O [PERGOLIDE MESYLATE],7.83
9,CN1CCN2c3ncccc3Cc3ccccc3C2C1 (stereo not given) [MIRTAZAPINE],-7.46
10,NC1=NC(=O)C(c2ccccc2)O1 (stereo not given) [PEMOLINE],19.66
11,Cl.NCCc1ccc(O)c(O)c1 [DOPAMINE HYDROCHLORIDE],7.35
12,CC[C@]1(O)CC[C@H]2[C@@H]3CCC4=CCCC[C@@H]4[C@H]3CC[C@@]21C [ETHYLESTRENOL],21.56
13,COc1cc(-c2ccc(=O)[nH]n2)ccc1OC(F)F [ZARDAVERINE],12.07
14,C[N+]1(C)CCC(OC(=O)C(O)(c2ccccc2)C2CCCC2)C1.[Br-] (stereo not given) [GLYCOPYRRONIUM BROMIDE],13.33
15,CNS(=O)(=O)Cc1ccc2[nH]cc(CCN(C)C)c2c1.O=C(O)CCC(=O)O [SUMATRIPTAN SUCCINATE],10.2
16,C#C[C@]1(O)CC[C@H]2[C@@H]3CCC4=CC(=O)CC[C@@H]4[C@H]3CC[C@@]21C [NORETHINDRONE],4.59
17,CN1C(=O)COc2c(C(=O)NC3CN4CCC3CC4)cc(Cl)cc21.Cl (stereo not given),37.41
18,CC(NC(C)(C)C)C(=O)c1cccc(Cl)c1.Cl (stereo not given) [BUPROPION HYDROCHLORIDE],9.58
19,CNCC(O)c1ccc(O)cc1 (stereo not given) [OXEDRINE],6.75
20,Br.Br.CN1CC[C@]2(c3cccc(O)c3)Cc3nc4ccccc4cc3C[C@H]2C1.O,13.22
21,CC(C)C(=O)Nc1ccc([N+](=O)[O-])c(C(F)(F)F)c1 [FLUTAMIDE],6.76
22,Br.COc1ccc2c(c1)[C@]13CCCC[C@@H]1[C@H](C2)N(C)CC3.O [DEXTROMETHORPHAN HYDROBROMIDE],17.98
23,C=C(C)[C@@H]1[C@H]2OC(=O)[C@@H]1[C@]1(O)C[C@H]3O[C@]34C(=O)O[C@H]2[C@]14C.CC(C)(O)[C@@H]1[C@H]2OC(=O)[C@@H]1[C@]1(O)C[C@H]3O[C@]34C(=O)O[C@H]2[C@]14C,33.69
24,CC(=O)CC(c1ccccc1)c1c([O-])c2ccccc2oc1=O.[Na+] (stereo not given) [WARFARIN SODIUM],7.36

row,SMILES,Inhibition [%]
1,CN(C)CCc1c[nH]c2ccc(Cn3cncn3)cc12.O=C(O)c1ccccc1 [RIZATRIPTAN BENZOATE],30.78
2,c1ccc2c3c([nH]c2c1)CNCC3 [TRYPTOLINE],14.82
3,CCN(CC)CCOC(=O)C(O)(c1ccccc1)c1ccccc1.Cl,12.38
4,Cl.O=C1CC[C@@]2(O)[C@H]3Cc4ccc(O)c5c4[C@@]2(CCN3CC2CC2)[C@H]1O5 [NALTREXONE HYDROCHLORIDE],15.95
5,CN1CC[C@@]23CCCC[C@@H]2[C@@H]1Cc1ccc(O)cc13.O=C(O)C(O)C(O)C(=O)O,14.64
6,Brc1c(NC2=NCCN2)ccc2nccnc12 [BRIMONIDINE],1.87
7,CN1CCN(C2=Nc3cc(Cl)ccc3Nc3ccccc32)CC1 [CLOZAPINE],1.5
8,N=C(NCc1ccc(Cl)cc1)SCCCc1c[nH]cn1 [CLOBENPROPIT],6.44
9,Cc1ccnc2c1NC(=O)c1cccnc1N2C1CC1 [NEVIRAPINE],42.2
10,NC(=O)OCCCc1ccccc1 [PHENPROBAMATE],8
11,CCCCCNC(=N)N/N=C/c1c[nH]c2ccc(OC)cc12.O=C(O)/C=C\C(=O)O [TEGASEROD MALEATE],20.58
12,COc1cc2c(cc1OC)[C@@]13CCN4CC5=CCO[C@H]6CC(=O)N2[C@H]1[C@H]6[C@H]5C[C@H]43 [BRUCINE],5.67
13,CCCC(C)(COC(N)=O)COC(=O)NC(C)C (stereo not given) [CARISOPRODOL],10.55
14,Cl.O.Oc1cc2c(cc1O)[C@H]1c3ccccc3CN[C@@H]1CC2,31.74
15,C[C@]12CCC(=O)C[C@@H]1CC[C@@H]1[C@@H]2CC[C@@]2(C)[C@H]1CC[C@]2(C)O [MESTANOLONE],-5.79
16,CCC1(c2ccc(N)cc2)CCC(=O)NC1=O (stereo not given) [AMINOGLUTETHIMIDE],14.25
17,Fc1ccc([C@@H]2CCNC[C@H]2COc2ccc3c(c2)OCO3)cc1.O=C(O)/C=C\C(=O)O,5.4
18,Cc1c(O)c(=O)ccn1C [DEFERIPRONE],6.92
19,C#C[C@]1(OC(C)=O)CC[C@H]2[C@@H]3CCC4=CC(=O)CC[C@@H]4[C@H]3CC[C@@]21C [NORETHINDRONE ACETATE],11.72
20,CC(C)[C@]12O[C@H]1[C@@H]1O[C@]13[C@]1(O[C@H]1C[C@H]1C4=C(CC[C@@]13C)C(=O)OC4)[C@@H]2O [TRIPTOLIDE],24.45
21,C[C@]12CCC(=O)C=C1CC[C@@H]1[C@@H]2CC[C@@]2(C)[C@H]1CC[C@]2(C)O [METHYLTESTOSTERONE],14.14
22,C[C@]12Cc3c[nH]nc3C[C@@H]1CC[C@@H]1[C@@H]2CC[C@@]2(C)[C@H]1CC[C@]2(C)O [STANOZOLOL],10.82
